# PubChem BioAssay AID504834 (National Center for Advancing Translational Sciences (NCATS), 2011)
# “And” between values parts separate entries of the source, which are not always exact repeats. Identical values can stand only once. In all, about 320,000 compounds went through this assay and about 22,000 (6.9%) were called active. This list was built around the results that the source calls inconclusive (neither active nor inactive); the mix of calls is not that of the screen. The call rests on the fitted dose curve; in most records, active means well fitted inhibition curve with a large enough effect; inconclusive means small, poorly fitted or top-dose-only effect, or another doubt; inactive means no such curve, though single readings can be large or run the other way. Potencies of inconclusive entries are doubtful fits and often do not repeat.
# Assay: Primary qHTS for delayed death inhibitors of the malarial parasite plastid, 96 hour incubation
# Details: P. falciparum luciferase reporter growth; series mostly up to 28.7 µM
# How it was run: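 Two-generation exposure (96 h) targets delayed-death phenotype. Reporter parasites carrying integrated firefly luciferase, in red cells at 2% hematocrit and 0.05% parasitemia final, kept at 37 C, 5% CO2; luminescence loss indicates inhibition.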
# Potency means the concentration at half of the fitted maximal effect.
row,Structure (SMILES),Potency
1,Cc1nn(C)c(C)c1Sc1ccc(Br)cc1,"inconclusive: 13.1 µM [inhibitor, partial curve, poor fit]"
2,O=C(O)CCc1ccc(-c2ccccc2)n1Cc1ccco1,"inconclusive: 5.22 µM [inhibitor, partial curve]"
3,O=C(CC1OC(=O)c2ccccc21)c1ccco1 (configuration not stated),"inconclusive: 10.4 µM [inhibitor, partial curve, poor fit]"
4,Cc1cc(OCC(=O)NCc2cccnc2)c2c(C)c(Cc3ccccc3)c(=O)oc2c1,"inconclusive: 8.28 µM [inhibitor, partial curve]"
5,S=C1NCN(Cc2cccnc2)CN1,inactive
6,COc1ccc(Nc2oc(COc3ccccc3F)nc2C#N)cc1,"inconclusive: 18.5 µM [inhibitor, single point]"
7,CCN(CC(=O)NC1CCS(=O)(=O)C1)C(C)C(=O)Nc1ccc(F)cc1 (configuration not stated),inactive
8,C/C(=N\NC(=O)CNC(=O)c1ccc(F)cc1)c1ccco1,"inconclusive: 13.1 µM [inhibitor, single point]"
9,CC(=O)N(C)c1ccc(NC(=O)c2ccc([N+](=O)[O-])cc2Cl)cc1,inactive
10,O=S(=O)(c1ccc2c(c1)OCCO2)N1CCC(O)(c2ccc(Cl)cc2)CC1,active: 9.28 µM
11,Cc1c(NS(=O)(=O)c2cc(C(=O)NCCc3ccc(F)cc3)cc(Cl)c2Cl)c(=O)n(-c2ccccc2)n1C,"inconclusive: 13.1 µM [inhibitor, single point]"
12,CC(C)NC(NC(=O)Cc1ccccc1)C(Cl)(Cl)Cl (configuration not stated),inactive
13,COc1ccc([C@H]2CC(=O)C=C(c3ccc(C)c4ccccc34)C2)cc1,active: 1.17 µM
14,O=C1CCN(S(=O)(=O)c2ccc(Br)cc2)CCN1,"inconclusive: 13.1 µM [inhibitor, single point]"
15,NNC(=O)c1[nH]c2ccccc2c1-c1ccccc1,"inconclusive: 2.08 µM [inhibitor, full curve]"
16,CCOc1ccccc1NC(=O)CC1Nc2cc(C)c(C)cc2NC1=O (configuration not stated),"inconclusive: 1.85 µM [inhibitor, full curve]"
17,Cc1cccc(N(CC(O)CON=C2c3ccccc3-c3ccccc32)S(C)(=O)=O)c1 (configuration not stated),active: 13.1 µM
18,O=C(NC1(C(F)(F)F)NC(=O)N(Cc2ccco2)C1=O)c1cccnc1 (configuration not stated),"inconclusive: 18.5 µM [inhibitor, single point]"
19,CS/C(=C\[N+](=O)[O-])Nc1ccc(F)cc1,inactive
20,NC(N)=NC(N)=Nc1ccc2ccccc2c1,"inconclusive: 18.5 µM [inhibitor, single point]"
21,CCn1c(SCc2nnc(-c3ccccc3)o2)nnc1-c1ccc(S(=O)(=O)N2CCCC2)cc1,"inconclusive: 11.7 µM [inhibitor, partial curve, poor fit]"
22,CC1Cc2cc(S(=O)(=O)CCC(=O)NCc3ccco3)ccc2N1C(=O)C1CC1 (configuration not stated),"inconclusive: 18.5 µM [inhibitor, single point]"
23,CC#CC(=O)N1CCCC(C(=O)c2ccc(SC)cc2)C1 (configuration not stated),"inconclusive: 18.5 µM [inhibitor, single point]"
24,COc1ccc(N2CC(O)=C(c3nc(-c4ccc(F)cc4)cs3)C2=N)cc1,"inconclusive: 4.65 µM [inhibitor, partial curve, poor fit]"

row,Structure (SMILES),Potency
1,COC(=O)CC1C(=O)NCCN1C(=S)NC(=O)c1sc2ccccc2c1Cl (configuration not stated),"inconclusive: 10.4 µM [inhibitor, single point]"
2,CC1CCN(c2c(NCC3CCC(C(=O)NCc4ccc(F)cc4)CC3)c(=O)c2=O)CC1 (configuration not stated),"inconclusive: 14.7 µM [inhibitor, partial curve]"
3,COc1ccc(S(=O)(=O)Nc2cc3c4c(c2)CCC(=O)N4CCC3)cc1C,"inconclusive: 10.4 µM [inhibitor, single point]"
4,COc1ccc2c(C)cc(Sc3nnnn3-c3ccccc3)nc2c1,"inconclusive: 11.7 µM [inhibitor, single point]"
5,COc1cccc(N2CCN(C(=O)c3ccc(CS(=O)c4ccccc4C)o3)CC2)c1 (configuration not stated),"inconclusive: 18.5 µM [inhibitor, single point]"
6,CS(=O)(=O)N1CCc2cc(C(=O)N3CCCC3)ccc21,"inconclusive: 18.5 µM [inhibitor, single point]"
7,Cc1ccc(/C=N/NC(=O)C(=O)N/N=C/c2ccc(C)o2)o1,"inconclusive: 18.5 µM [inhibitor, single point]"
8,O=c1c2ccccc2nc2n1CCN2Cc1ccc(Cl)cc1,active: 2.33 µM
9,COC(=O)c1[nH]c2ccc(Cl)cc2c1NC(=O)CN1CCC(C(N)=O)CC1,"inconclusive: 13.1 µM [inhibitor, partial curve, poor fit]"
10,Cc1ccccc1NC(=O)CSc1nc(N2CCCCC2)nc(N2CCCCC2)n1,"inconclusive: 1.65 µM [inhibitor, full curve]"
11,Cc1ccc(/C=N/NC(=O)COc2ccccc2-c2ccccc2)cc1,"inconclusive: 9.28 µM [inhibitor, partial curve]"
12,CNC(=S)Nc1ccc([N+](=O)[O-])cc1,"inconclusive: 18.5 µM [inhibitor, single point]"
13,O=C(NCCCc1ccccc1)c1ccccc1,active: 9.28 µM
14,COc1ccccc1NC(=S)NCc1ccc(Cl)cc1,"inconclusive: 16.5 µM [inhibitor, single point]"
15,COCCCNc1nnc(Cc2ccccc2)c2ccccc12,"inconclusive: 1.31 µM [inhibitor, single point]"
16,Oc1ccc2ccccc2c1N=Nc1ccc(F)cc1,"inactive and inconclusive: 13.1 µM [inhibitor, partial curve]"
17,Cc1cc(C)cc(NC(=O)Nc2ccc3ccccc3n2)c1,inactive
18,COCc1c(C(=O)OCc2nc(N)nc(Nc3ccccc3C)n2)oc2ccccc12,"inconclusive: 8.28 µM [inhibitor, single point]"
19,Cc1ccccc1NC(=O)CN1C(=O)NC2(CCc3ccccc32)C1=O (configuration not stated),"inconclusive: 10.4 µM [inhibitor, partial curve, poor fit]"
20,Cc1ccc(-n2nc(-c3ccco3)cc2C(=O)O)cc1,inactive
21,Brc1cc2c(cc1Cn1c(-c3cncs3)nc3ccccc31)OCO2,"inconclusive: 5.86 µM [inhibitor, partial curve, poor fit]"
22,CC(C)c1ccc(C(=O)NNC(=O)C2CC=CCC2C(=O)O)cc1 (configuration not stated),inactive
23,C=C(C)Cn1c(CNC(C)=O)nc2ccccc21,"inconclusive: 14.7 µM [inhibitor, single point]"
24,COc1ccc(C(=O)c2c(C)c(CCC#N)n3ccccc23)c(OC)c1,inactive

row,Structure (SMILES),Potency
1,CCn1cc(C(=O)O)c(=O)c2cc(F)c(N3CCN(C(=S)NC(=O)c4ccccc4C)CC3)cc21,"inconclusive: 5.22 µM [inhibitor, partial curve]"
2,CC1(C)CC(=O)C2=C(C1)N(c1ccccc1)C(N)=C(C#N)C2c1ccccc1 (configuration not stated),"inconclusive: 5.86 µM [inhibitor, partial curve, poor fit]"
3,O=C(CN1C(=O)CCSc2ccccc21)NC1CCCCC1,"inconclusive: 18.5 µM [inhibitor, partial curve, poor fit]"
4,O=C(c1cc2c(=O)n3ccccc3nc2s1)N1CCN(Cc2ccc3c(c2)OCO3)CC1,active: 6.57 µM
5,CCOc1ccc(C(=O)/C=C/c2cn(CN3CCN(C)CC3)c3ccccc23)cc1,"inconclusive: 18.5 µM [inhibitor, single point]"
6,CN(C)CCNC(=S)Nc1ccc(-c2nc3ccccc3[nH]2)cc1,"inconclusive: 16.5 µM [inhibitor, single point]"
7,Cc1cc(C)n2nc(C(=O)N3CCCC(Nc4ccc(C(C)C)cc4)C3)cc2n1 (configuration not stated),"inconclusive: 13.1 µM [inhibitor, single point]"
8,O=C(CN1C(=O)CCS(=O)(=O)c2ccccc21)NCc1ccc2c(c1)OCO2,inactive
9,Cc1cc(C)cc(OCC(=O)OCC(=O)NC2CCCCCCC2)c1,inactive
10,Cc1c(NC(=O)CN2C(=O)C3C4C=CC(C4)C3C2=O)c(=O)n(-c2ccccc2)n1C (configuration not stated),"inconclusive: 16.5 µM [inhibitor, single point]"
11,O=C(NCc1ccco1)c1ccc(N2CCCCC2)c([N+](=O)[O-])c1,active: 6.57 µM
12,COc1cc(NC(=O)CSc2ccc(-c3cccnc3)nn2)cc(OC)c1,"inconclusive: 7.38 µM [inhibitor, partial curve]"
13,CC1CCCCC1NC(=O)C1CCN(S(=O)(=O)N2CCCCCC2)CC1 (configuration not stated),"inconclusive: 3.29 µM [inhibitor, single point]"
14,CC(C)n1c(NCCO)nc2ccccc21,"inconclusive: 14.7 µM [inhibitor, single point]"
15,CN(NC1CC(=O)N(c2ccccc2)C1=O)c1ccccc1 (configuration not stated),"inconclusive: 0.329 µM [inhibitor, full curve, poor fit]"
16,O=C(NCCc1ccccc1)C1CC(=O)N(C2CCCC2)C1 (configuration not stated),inactive
17,CCCCNC(=O)C(=O)N/N=C/c1ccc(C(=O)OC)cc1,inactive
18,CCOC(=O)C1=C(C)N=C2SCCC(=O)N2C1c1ccc(OC)cc1 (configuration not stated),inactive
19,CC(C)(C)NCCOc1ccc2ccccc2c1,inactive
20,Cc1n[nH]c(C)c1CCN(C)Cc1cn(C)nc1-c1ccccc1F,inactive
21,Cc1ccc(C2N(c3ccc(F)cc3)C(=O)C3CCCN32)cc1 (configuration not stated),inactive
22,COc1cccc(NC(=O)N2CCC(N3CCCCC3)CC2)c1,inactive
23,O=C(CCNC(=O)c1ccccc1Cl)Nc1nc(-c2ccccc2Cl)cs1,inactive
24,CC(=O)c1cccc(NS(=O)(=O)c2cc3c(cc2C)N(C(C)=O)CCO3)c1,"inconclusive: 4.65 µM [inhibitor, partial curve, poor fit]"
